Measurements taken from article PMC6024601.
No constants are given. Whether binding was seen depends on the method and setting. Binding seen in cells or lysates may run through a third protein. Some entries that bind do so weakly or less than the wild type.

Amino acid sequences for entries named in this document (tags omitted).
UniProt Q6AZ64: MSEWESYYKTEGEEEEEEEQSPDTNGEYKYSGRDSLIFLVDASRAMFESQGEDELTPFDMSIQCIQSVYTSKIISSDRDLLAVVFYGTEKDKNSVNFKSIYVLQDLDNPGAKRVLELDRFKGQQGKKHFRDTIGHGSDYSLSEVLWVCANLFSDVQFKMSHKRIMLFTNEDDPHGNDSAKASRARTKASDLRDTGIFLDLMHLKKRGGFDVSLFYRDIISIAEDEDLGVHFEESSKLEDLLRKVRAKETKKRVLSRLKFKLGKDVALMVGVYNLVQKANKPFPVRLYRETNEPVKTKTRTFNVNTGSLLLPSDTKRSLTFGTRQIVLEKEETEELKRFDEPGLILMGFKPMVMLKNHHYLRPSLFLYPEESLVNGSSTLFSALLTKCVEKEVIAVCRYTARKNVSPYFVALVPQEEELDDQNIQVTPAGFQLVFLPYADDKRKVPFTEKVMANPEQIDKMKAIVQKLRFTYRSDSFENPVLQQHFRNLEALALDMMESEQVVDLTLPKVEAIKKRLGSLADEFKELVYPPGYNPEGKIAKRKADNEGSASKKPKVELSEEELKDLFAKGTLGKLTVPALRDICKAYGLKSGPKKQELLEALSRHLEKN
UniProt Q63690: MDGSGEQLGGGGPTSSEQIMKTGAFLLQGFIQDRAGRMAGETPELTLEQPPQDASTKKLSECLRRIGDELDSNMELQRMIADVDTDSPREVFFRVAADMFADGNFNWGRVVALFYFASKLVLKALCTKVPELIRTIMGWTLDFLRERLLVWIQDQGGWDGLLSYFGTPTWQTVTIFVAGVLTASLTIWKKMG

Experiments:
[1] = target: Ku70 (rat (endogenous in Sertoli–germ cells and testes of SD rats)) (UniProt Q6AZ64); test: co-IP; endogenous proteins in lysate of co-cultured rat Sertoli–germ cells; cells untreated or exposed to MC-LR (36 μg/mL) with or without RES (20 μM) pretreatment; western blot
[2] = target: Bax (rat (endogenous in Sertoli–germ cells and testes of SD rats)) (UniProt Q63690); test: co-IP; endogenous proteins in rat testis homogenate in RIPA buffer; 500 μg protein with 5 μg antibody (Ku70 or Bax), Protein A agarose; IP and reverse IP; rats untreated or treated with MC-LR (40 μg/kg, 14 days) with or without RES pretreatment; western blot

Substance: Bax (from UniProt Q63690 1-192)
- binding [1]: binds

Substance: Ku70 (from UniProt Q6AZ64 1-608)
- binding [2]: binds
